Assay results from paper PMC9044860.
Results are given in words; binding and its absence hold for the method and conditions named. In cells and extracts the contact can be indirect. Some entries that bind do so weakly or less than the wild type.

The chains behind the UniProt entries cited, without tags or fusion partners.
UniProt P08047: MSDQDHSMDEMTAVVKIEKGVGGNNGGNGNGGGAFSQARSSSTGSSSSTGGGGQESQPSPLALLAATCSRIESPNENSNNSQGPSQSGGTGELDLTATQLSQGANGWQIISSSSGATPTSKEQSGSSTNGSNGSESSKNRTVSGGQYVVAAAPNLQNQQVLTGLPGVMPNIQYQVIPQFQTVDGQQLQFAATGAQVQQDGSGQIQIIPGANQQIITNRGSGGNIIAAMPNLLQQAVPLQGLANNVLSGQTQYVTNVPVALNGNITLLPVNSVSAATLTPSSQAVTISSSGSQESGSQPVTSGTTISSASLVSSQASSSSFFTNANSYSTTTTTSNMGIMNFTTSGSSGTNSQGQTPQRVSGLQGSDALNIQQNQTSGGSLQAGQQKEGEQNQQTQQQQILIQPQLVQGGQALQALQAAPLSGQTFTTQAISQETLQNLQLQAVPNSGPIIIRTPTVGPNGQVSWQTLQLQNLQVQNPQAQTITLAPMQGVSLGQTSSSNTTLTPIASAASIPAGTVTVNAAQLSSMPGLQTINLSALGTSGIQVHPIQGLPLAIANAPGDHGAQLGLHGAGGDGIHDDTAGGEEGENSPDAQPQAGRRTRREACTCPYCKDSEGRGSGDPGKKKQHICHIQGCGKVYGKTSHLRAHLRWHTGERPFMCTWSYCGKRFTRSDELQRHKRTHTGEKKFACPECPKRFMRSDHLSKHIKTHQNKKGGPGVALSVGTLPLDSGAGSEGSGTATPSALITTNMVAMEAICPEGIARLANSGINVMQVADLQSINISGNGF
UniProt Q16665: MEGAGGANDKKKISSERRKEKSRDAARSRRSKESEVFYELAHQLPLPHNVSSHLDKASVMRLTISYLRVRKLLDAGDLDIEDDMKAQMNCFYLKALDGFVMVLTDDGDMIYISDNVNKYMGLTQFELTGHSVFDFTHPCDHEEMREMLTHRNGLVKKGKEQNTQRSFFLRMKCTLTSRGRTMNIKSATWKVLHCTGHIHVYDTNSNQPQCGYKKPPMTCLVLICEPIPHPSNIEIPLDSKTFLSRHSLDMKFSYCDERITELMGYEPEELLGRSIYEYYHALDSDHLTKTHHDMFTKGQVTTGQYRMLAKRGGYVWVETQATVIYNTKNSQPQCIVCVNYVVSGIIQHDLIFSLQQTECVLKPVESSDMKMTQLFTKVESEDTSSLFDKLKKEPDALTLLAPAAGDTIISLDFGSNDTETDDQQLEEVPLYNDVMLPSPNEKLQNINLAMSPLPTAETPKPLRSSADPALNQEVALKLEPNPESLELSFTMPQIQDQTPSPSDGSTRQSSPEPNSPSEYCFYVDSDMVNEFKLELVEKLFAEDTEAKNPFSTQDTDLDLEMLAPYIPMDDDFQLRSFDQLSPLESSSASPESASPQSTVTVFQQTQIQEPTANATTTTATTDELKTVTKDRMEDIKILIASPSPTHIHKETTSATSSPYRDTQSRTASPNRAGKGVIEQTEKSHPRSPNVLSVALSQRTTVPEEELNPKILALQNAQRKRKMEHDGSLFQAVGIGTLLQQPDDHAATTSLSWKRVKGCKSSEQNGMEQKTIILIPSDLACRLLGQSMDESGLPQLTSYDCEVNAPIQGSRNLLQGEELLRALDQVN

Legend:
[1] = target: specificity protein 1 (SP1) (human (endogenous in NSCLC cell lines)) (UniProt P08047); experiment: co-IP; NSCLC cells after hypoxia (1% O2) for 24 h; RIPA lysate incubated with antibody at 4 °C overnight, Dynabeads-protein G, western blot
[2] = target: specificity protein 1 (SP1), overexpressed from plasmid (pcDNA SP1) (UniProt P08047); experiment: co-IP; cells overexpressing SP1 under hypoxia; RIPA lysate, immunoprecipitation with anti-SP1 or anti-HIF1α antibodies (normal IgG as control), Dynabeads-protein G, western blot
[3] = target: specificity protein 1 (SP1) (human (endogenous in NSCLC cell lines)) (UniProt P08047); experiment: condition: only under normoxia (cells not treated with hypoxia); co-IP; NSCLC cells under normoxia; RIPA lysate incubated with antibody at 4 °C overnight, Dynabeads-protein G, western blot
[4] = target: hypoxia-inducible factor-1α (HIF1α) (human (endogenous in NSCLC cell lines)) (UniProt Q16665); experiment: co-IP; cells overexpressing SP1 under hypoxia; RIPA lysate, immunoprecipitation with anti-SP1 or anti-HIF1α antibodies (normal IgG as control), Dynabeads-protein G, western blot

Row | Substance | binding [1] | binding [2] | binding [3] | binding [4]
1 | hypoxia-inducible factor-1α (HIF1α) (from UniProt Q16665 1-826) | binds | binds | no binding | –
2 | specificity protein 1 (SP1), overexpressed from plasmid (pcDNA SP1) (from UniProt P08047 1-785) | – | – | – | binds
